Assay results from patent EP0011663A1, “Toilet and dental preparations and their use for oral and dental hygiene” (UNILEVER PLC, priority 1978, dated 1980).

Test system: in vitro plaque
Test: in vitro artificial plaque assay on saliva-coated aluminium plummets (Tests 1, 3, 4 and general statements)
Type: cell-based
Conditions: pH 4.1, read-out: % Reduction
Experimental: An in vitro test was used in the Tests described herein for examining and effects of chemotherapeutic agents on plaque, and was carried out in accordance with the test reported in the Journal of Dental Research, Vol. 55, February 1976, page B286, by R T Evans, P J Baker, R A Coburn and R J Genco. An assay system for producing artificial plaque was used to screen antiplaque agents rapidly under conditions which simulated those found in the oral cavity.
The in vitro plaque was formed at 37°C on uniformly- sized aluminium plummets which were first coated with saliva. The plummets were then placed in a growth medium inoculated with clinical plaque samples. After seven hours the plummets were suspended overnight in a 25;0 saliva mixture. On the second day, the plummets were immersed in a 50% saliva - 50% test compound mixture for one minute, placed in the growth medium for seven hours, retreated with the test mixture and suspended in 25% saliva overnight. The plummets were treated again on the third day and incubated in the growth medium for three hcurs. The plaques were removed from the plummets by donication into approximately six millilitres of buffer and quantitated by optical density (O.D.) in a Beckman DU spectrophotometer at 570 nm.
Positive controls were included to determine relative activity. Comparisons of antiplaque activity were then made within a given experiment. […]

Work on `CCCCCCCCCCCCCCCC[n+]1ccccc1` [CPC, cetyl pyridinium chloride, reference compound] yielded an inhibition at 0.04 % of 26.9%.
